The results in this text go back to PMC6471077.

By UniProt entry, the sequences of proteins in these tests, tags left out. Where a name states a change or a piece, a line headed by the entry shows the natural chain unless it says otherwise.
UniProt Q2QXL0: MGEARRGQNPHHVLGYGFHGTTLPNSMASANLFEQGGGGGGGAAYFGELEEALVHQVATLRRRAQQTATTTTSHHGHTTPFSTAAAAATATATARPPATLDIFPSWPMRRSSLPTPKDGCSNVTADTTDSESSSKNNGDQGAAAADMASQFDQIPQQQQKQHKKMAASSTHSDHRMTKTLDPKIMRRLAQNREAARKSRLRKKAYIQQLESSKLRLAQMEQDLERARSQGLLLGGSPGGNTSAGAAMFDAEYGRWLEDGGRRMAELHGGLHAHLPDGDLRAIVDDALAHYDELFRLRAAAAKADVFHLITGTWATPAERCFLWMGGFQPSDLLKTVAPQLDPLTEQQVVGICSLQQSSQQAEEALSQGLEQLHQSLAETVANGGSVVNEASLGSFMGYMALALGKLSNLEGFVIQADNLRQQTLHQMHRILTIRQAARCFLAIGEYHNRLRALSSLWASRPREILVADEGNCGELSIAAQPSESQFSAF

These are yes or no findings as the source states them, for the method shown. Binding calls can cover weak binding; strength is not graded here. For some assays here: Tags and fused reporters may be left off the sequences shown.

The target of assay [1] is T1, GST-SAPK10 (rice (Oryza sativa L.)) (UniProt Q75H77).
T1 sequence: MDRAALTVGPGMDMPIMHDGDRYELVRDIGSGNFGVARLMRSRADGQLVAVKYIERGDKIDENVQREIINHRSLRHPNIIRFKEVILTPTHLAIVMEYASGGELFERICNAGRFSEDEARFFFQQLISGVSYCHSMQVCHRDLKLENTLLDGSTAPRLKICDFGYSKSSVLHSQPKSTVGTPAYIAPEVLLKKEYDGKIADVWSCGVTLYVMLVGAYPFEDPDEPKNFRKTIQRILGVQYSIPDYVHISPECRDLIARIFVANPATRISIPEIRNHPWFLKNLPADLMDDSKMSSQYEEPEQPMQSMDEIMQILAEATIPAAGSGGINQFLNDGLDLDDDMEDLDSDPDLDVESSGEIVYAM
Briefly: pull-down; GST fusion held on Glutathione High Capacity magnetic Agarose Beads; 500 ug of each recombinant protein in 600 uL buffer (50 mM Tris-HCl pH 7.5, 5% glycerol, 1 mM EDTA, 1 mM DTT, 1 mM PMSF, 0.01% Nonidet P-40, 150 mM KCl), 2 h at 4 C; western blot with anti-HIS and anti-GST; both …. A general note: A western blot detects proteins with antibodies after separation by electrophoresis.

Assay [2] addresses T2, GST-SAPK9 (rice (Oryza sativa L.)) (UniProt Q75V57).
T2 sequence: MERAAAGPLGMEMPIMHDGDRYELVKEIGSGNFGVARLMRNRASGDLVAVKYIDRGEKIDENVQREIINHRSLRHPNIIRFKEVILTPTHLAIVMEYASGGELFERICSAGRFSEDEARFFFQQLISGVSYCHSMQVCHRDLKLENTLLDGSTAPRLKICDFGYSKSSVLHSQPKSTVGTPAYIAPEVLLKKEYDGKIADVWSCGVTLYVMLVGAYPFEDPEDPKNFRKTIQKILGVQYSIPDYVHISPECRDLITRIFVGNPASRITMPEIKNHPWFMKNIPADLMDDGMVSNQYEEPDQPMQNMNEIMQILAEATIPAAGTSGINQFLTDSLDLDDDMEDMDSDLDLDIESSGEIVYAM
The description is as above.

The target of assay [3] is bZIP35 (rice (Oryza sativa L.)). In words: two-hybrid; bZIPs as baits in pDEST32, SAPKs as preys in pDEST22 (ProQuest system), co-transformed into yeast Y2HGold; growth on SD/-Trp-Leu-Ade-His with X-alpha-Gal; three repeats, positive only if positive in all three.
Assay [4] addresses bZIP55 (rice (Oryza sativa L.)). Described as above.
The target in assay [5] is bZIP77 (rice (Oryza sativa L.)). The assay is described as above.
In assay [6] the target is bZIP83 (rice (Oryza sativa L.)) (UniProt Q2QXL0). The description is as above.

For HIS-bZIP77 (rice (Oryza sativa L.)), the binding result in assay [1] and in assay [2] was “binds” throughout.

B1: SAPK10 (enzyme, UniProt Q75H77 1-362)
chain: MDRAALTVGPGMDMPIMHDGDRYELVRDIGSGNFGVARLMRSRADGQLVAVKYIERGDKIDENVQREIINHRSLRHPNIIRFKEVILTPTHLAIVMEYASGGELFERICNAGRFSEDEARFFFQQLISGVSYCHSMQVCHRDLKLENTLLDGSTAPRLKICDFGYSKSSVLHSQPKSTVGTPAYIAPEVLLKKEYDGKIADVWSCGVTLYVMLVGAYPFEDPDEPKNFRKTIQRILGVQYSIPDYVHISPECRDLIARIFVANPATRISIPEIRNHPWFLKNLPADLMDDSKMSSQYEEPEQPMQSMDEIMQILAEATIPAAGSGGINQFLNDGLDLDDDMEDLDSDPDLDVESSGEIVYAM
For the molecule B1, the binding entry in assay [3], in assay [4] and in assay [5] was “binds” in each case.

B2: SAPK8 (enzyme, UniProt Q7Y0B9 1-371)
chain: MAAAGAGAGAPDRAALTVGPGMDMPIMHDSDRYELVRDIGSGNFGVARLMRDRRTMELVAVKYIERGEKIDDNVQREIINHRSLKHPNIIRFKEVILTPTHLAIVMEYASGGELFERICKNVRFSEDEARYFFQQLISGVSYCHSMQVCHRDLKLENTLLDGSPAPRLKICDFGYSKSSVLHSQPKSTVGTPAYIAPEVLLKKEYDGKTADVWSCGVTLYVMVVGAYPFEDPEEPKNFRKTIQRILNVQYSIPENVDISPECRHLISRIFVGDPSLRITIPEIRSHGWFLKNLPADLMDDDSMSSQYEEPDQPMQTMDQIMQILTEATIPPACSRINHILTDGLDLDDDMDDLDSDSDIDVDSSGEIVYAM
B2: the binding entry in assay [3] and in assay [6] was “binds” in each case.

B3: SAPK7 (enzyme, UniProt Q7XQP4 1-359)
chain: MERYELLKDIGAGNFGVARLMRNKETKELVAMKYIPRGLKIDENVAREIINHRSLRHPNIIRFKEVVVTPTHLAIVMEYAAGGELFDRICNAGRFSEDEARYFFQQLICGVSYCHFMQICHRDLKLENTLLDGSPAPRLKICDFGYSKSSLLHSKPKSTVGTPAYIAPEVLSRREYDGKTADVWSCGVTLYVMLVGAYPFEDPDDPKNFRKTIGRIMSIQYKIPEYVHVSQDCRQLLSRIFVANPAKRITIREIRNHPWFLKNLPRELTEAAQAMYYKKDNSAPTYSVQSVEEIMKIVEEARTPPRSSTPVAGFGWQEEDEQEDNSKKPEEEQEEEEDAEDEYDKQVKQVHASGEFQLS
Take B3: the binding entry in assay [3] was “binds”.
